Where two headings read alike, the source gives them in different places. Results are given in words; binding and its absence hold for the method and conditions named. Binding seen in cells or lysates may run through a third protein. Some entries that bind do so weakly or less than the wild type. Where a sequence is shown, tags or fusion partners need not be part of it.
Key:
Assay in all cases: co-IP
Flag-MBOAT7 (human) = molecular target: T1, Flag-MBOAT7 (human) (UniProt Q96N66)
T1 sequence: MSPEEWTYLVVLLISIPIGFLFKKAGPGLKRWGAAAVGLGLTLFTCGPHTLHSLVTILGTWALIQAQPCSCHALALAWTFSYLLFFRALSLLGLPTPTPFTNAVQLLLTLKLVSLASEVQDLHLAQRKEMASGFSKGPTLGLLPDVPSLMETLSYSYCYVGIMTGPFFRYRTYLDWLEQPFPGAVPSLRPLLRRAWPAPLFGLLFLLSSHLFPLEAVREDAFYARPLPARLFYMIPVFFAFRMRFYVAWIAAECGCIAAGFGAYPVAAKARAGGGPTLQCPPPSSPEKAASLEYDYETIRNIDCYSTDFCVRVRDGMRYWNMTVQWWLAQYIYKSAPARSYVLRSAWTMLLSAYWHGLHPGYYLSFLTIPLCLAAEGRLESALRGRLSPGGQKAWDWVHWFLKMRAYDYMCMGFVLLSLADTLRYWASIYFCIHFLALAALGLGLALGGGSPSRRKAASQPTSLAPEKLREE

The chains behind the UniProt entries cited, without tags or fusion partners.
UniProt P62820: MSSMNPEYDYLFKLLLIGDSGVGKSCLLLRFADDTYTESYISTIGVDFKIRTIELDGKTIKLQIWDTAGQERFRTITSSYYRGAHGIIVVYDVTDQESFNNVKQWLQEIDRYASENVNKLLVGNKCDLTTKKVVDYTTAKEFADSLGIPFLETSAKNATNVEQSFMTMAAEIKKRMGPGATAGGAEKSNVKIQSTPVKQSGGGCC

Flag-GPAT4 (human) [1] = molecular target: T2, Flag-GPAT4 (human) (UniProt Q86UL3)
T2 sequence: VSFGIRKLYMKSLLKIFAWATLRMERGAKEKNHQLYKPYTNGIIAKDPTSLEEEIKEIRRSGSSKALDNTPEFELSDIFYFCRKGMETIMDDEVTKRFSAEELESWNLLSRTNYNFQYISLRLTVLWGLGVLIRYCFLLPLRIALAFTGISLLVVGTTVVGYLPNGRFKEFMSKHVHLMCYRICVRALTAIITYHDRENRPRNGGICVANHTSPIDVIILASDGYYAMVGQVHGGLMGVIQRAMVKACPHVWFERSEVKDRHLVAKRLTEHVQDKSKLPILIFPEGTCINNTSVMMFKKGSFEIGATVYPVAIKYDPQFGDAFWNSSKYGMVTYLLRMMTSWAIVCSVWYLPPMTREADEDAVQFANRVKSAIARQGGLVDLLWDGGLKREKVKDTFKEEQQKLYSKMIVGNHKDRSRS

Flag-DGAT2 (human) [2] = molecular target: T3, Flag-DGAT2 (human) (UniProt Q96PD7)
T3 sequence: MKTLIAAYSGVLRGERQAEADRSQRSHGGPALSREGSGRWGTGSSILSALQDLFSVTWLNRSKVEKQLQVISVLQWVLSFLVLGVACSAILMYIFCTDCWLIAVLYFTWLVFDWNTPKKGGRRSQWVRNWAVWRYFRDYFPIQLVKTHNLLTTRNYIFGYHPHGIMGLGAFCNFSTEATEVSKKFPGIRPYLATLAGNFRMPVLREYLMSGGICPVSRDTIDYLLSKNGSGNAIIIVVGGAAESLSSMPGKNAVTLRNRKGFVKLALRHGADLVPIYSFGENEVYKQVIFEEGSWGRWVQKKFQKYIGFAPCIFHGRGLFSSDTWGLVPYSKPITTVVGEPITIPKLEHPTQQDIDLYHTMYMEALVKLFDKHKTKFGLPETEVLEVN

Flag-GPAT4 (human) [3] = molecular target: T2, Flag-GPAT4 (human); remark: listed apart in the source
Flag-DGAT2 (human) [4] = molecular target: T3, Flag-DGAT2 (human); remark: listed apart in the source
Flag-DGAT2 (human) [5] = molecular target: T3, Flag-DGAT2 (human); remark: listed apart in the source
Flag-GPAT4 (human) [6] = molecular target: T2, Flag-GPAT4 (human); remark: listed apart in the source

Measured: binding

GFP-RAB1A (from UniProt P62820 1-205)
binds: all assays above

Source: publication doi:10.1101/2025.08.26.672501
